The values below come from article PMC6453957.

Protein sequences, listed by entry. Tags and fused reporters are not part of them. Lines headed by an entry give the natural chain unless they say otherwise; changes in a name come on top.
UniProt Q07955, whole entry: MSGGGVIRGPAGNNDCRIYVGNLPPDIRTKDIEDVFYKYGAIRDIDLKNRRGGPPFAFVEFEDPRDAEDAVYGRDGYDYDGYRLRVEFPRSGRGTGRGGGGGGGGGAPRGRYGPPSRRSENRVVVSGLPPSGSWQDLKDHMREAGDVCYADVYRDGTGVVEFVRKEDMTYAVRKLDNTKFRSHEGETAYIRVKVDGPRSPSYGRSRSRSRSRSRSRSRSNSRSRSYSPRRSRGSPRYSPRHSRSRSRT
UniProt P26599: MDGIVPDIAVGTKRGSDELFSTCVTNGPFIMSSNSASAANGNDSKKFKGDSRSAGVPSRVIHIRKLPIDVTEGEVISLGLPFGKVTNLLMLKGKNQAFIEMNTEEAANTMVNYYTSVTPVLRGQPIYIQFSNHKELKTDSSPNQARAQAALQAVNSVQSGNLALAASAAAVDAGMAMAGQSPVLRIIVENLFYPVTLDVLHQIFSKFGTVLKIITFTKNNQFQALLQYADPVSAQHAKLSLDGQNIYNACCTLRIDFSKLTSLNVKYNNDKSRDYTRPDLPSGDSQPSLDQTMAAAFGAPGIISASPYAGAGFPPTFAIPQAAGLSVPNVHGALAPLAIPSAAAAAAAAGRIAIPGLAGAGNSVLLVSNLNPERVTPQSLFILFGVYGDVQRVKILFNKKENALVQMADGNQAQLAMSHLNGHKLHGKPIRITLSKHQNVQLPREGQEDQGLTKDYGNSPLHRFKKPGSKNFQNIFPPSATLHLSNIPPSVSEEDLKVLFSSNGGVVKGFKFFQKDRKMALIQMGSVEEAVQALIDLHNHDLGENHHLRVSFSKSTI

For part of these data: Weaker means in comparison with the reference protein, sequence or condition of that experiment. For part of these data: Where a protein sequence is shown, tags need not be part of it. For part of these data: For at least one entry, the source does not settle the construct or the ends of the probe. For part of these data: Results from cells or extracts need not show a direct contact. For part of these data: No signal at the amounts used counts as a negative.

The target of one data set is SRSF1 (UniProt Q07955). As to the kind of experiment: pull-down, immunoblot. As to conditions: HEK293 nuclear extract, 2'-O-methyl on every nucleotide, switchSENSE titration: T100 (10 mM Tris-HCl pH 7.4, 100 mM NaCl, 0.05% Tween20), 37 C, sizing: T40 (same with 40 mM NaCl), protein in an extract, label: 5' biotin, synthetic backbone. (In general: In western blotting, separated proteins are transferred to a membrane and probed.)

The next data set concerns the target PTBP1 (UniProt P26599). As to the kind of experiment: pull-down, immunoblot. As to conditions: HEK293 nuclear extract, 2'-O-methyl on every nucleotide, switchSENSE titration: T100 (10 mM Tris-HCl pH 7.4, 100 mM NaCl, 0.05% Tween20), 37 C, sizing: T40 (same with 40 mM NaCl), protein in an extract, label: 5' biotin, synthetic backbone.
For another data set, the system named is RBFOX2. Description: pull-down, immunoblot. Particulars: HEK293 nuclear extract, 2'-O-methyl on every nucleotide, switchSENSE titration: T100 (10 mM Tris-HCl pH 7.4, 100 mM NaCl, 0.05% Tween20), 37 C, sizing: T40 (same with 40 mM NaCl), protein in an extract, label: 5' biotin, synthetic backbone.
The next data set addresses T1, RBFOX1 RRM (UniProt Q9NWB1).
T1 sequence (looked up): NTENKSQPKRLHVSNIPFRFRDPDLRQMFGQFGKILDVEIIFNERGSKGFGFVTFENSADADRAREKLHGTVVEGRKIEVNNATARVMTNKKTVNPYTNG
As to the kind of experiment: NMR 1H-15N HSQC titration. Particulars: 313 K, only small shifts, NMR: NMR buffer (RNA in T40), recombinant protein, residues 109-208, protein details: N-terminal 6xHis.

For the sequence CGCAGGACGCAGGACGCAGGA [biSF2i2], the binding result with SRSF1 is listed as “binds”.
With CUCUCUCUCUCUCUCUCUCUCUCU [biPTBP1i], in the data set with PTBP1, the binding result was “binds”.
As for GCAAUCCGCAAUCCGCAAUCC [biSCRM], the binding result with SRSF1, with RBFOX2 and with PTBP1 was “no binding” in each case.
Consider UCAGAGGA [SRSF1 motif control RNA], for which the binding result in the data set with RBFOX1 RRM is “binds more weakly”.
